Patent US9414590B2, “Chemical and biological agents for the control of molluscs” (priority 2009, dated 2016)
At least one structure is not confirmed: it was looked up by name or label, or the drawing left a doubt.

Test system: CL145A (ATCC 55799)
Assay: Antibiotic resistance profile, discs on Mueller-Hinton Agar
Assay type: cell-based, Pseudomonas protegens strain CL145A
Conditions: for CL145A resistant or sensitive to the antibiotic: antibiotic disc, 72 hours incubation; for Suppresses growth of CL145A: 25° C., 72 hours
Procedure: One glycerol stock vial of CL145A was equally distributed onto Mueller-Hinton Agar plates (100 μl per plate) and spread on the plate using a sterile cell spreader. Antibiotic discs were then placed onto the plates along with a blank sterile disc. Plates were incubated at 25° C. in the dark for 72 hours.

SMILES	CL145A resistant or sensitive to the antibiotic	Suppresses growth of CL145A (disc 30 μg)	Suppresses growth of CL145A (disc 10 μg)
CN(C)[C@@H]1C(O)=C(C(N)=O)C(=O)[C@@]2(O)C(O)=C3C(=O)c4c(O)cccc4[C@@](C)(O)[C@H]3[C@H](O)[C@@H]12 [Oxytetracycline]	sensitive	Yes	
NC[C@H]1O[C@H](O[C@H]2[C@H](O)[C@@H](O[C@H]3O[C@H](CO)[C@@H](O)[C@H](N)[C@H]3O)[C@H](N)C[C@@H]2N)[C@H](O)[C@@H](O)[C@@H]1O [Kanamycin]	sensitive	Yes	
CN(C)[C@@H]1C(O)=C(C(N)=O)C(=O)[C@@]2(O)C(O)=C3C(=O)c4c(O)cccc4[C@@](C)(O)[C@H]3C[C@@H]12 [Tetracycline]	resistant	No	
C[C@@H](O)[C@H]1C(=O)N2C(C(=O)O)=C(SCCN=CN)C[C@H]12 [Imipenem]	sensitive		Yes
